# Source: the supplement of paper PMC4604168 (melanoma cell lines)
# This is one part of the list. Many values rest on one well or one pass, so single values are uncertain.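 Imaging used 1,536-well plates; nuclei positive for cleaved PARP by antibody were divided by total DNA-stained nuclei to yield the apoptosis fraction. Doses for screening kept most cells viable, and cell lines differ markedly in resting and induced cleaved-PARP levels.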
# Assays:
# Assay in all cases: cleaved PARP positive nuclei fraction relative to DMSO control; melanoma cells; higher = more apoptosis
# Details in all cases: library dose: low library concentration; 72 h
# COLO792 = tested on: COLO792
# COLO800 = tested on: COLO800
# COLO829 = tested on: COLO829
# G361 = tested on: G361
# IPC-298 = tested on: IPC-298
# IST-MEL1 = tested on: IST-MEL1
# LB2518-MEL = tested on: LB2518-MEL
# LOXIMVI = tested on: LOXIMVI
# MEL-HO = tested on: MEL-HO
# MZ2-MEL = tested on: MZ2-MEL
# MeWo = tested on: MeWo
# RPMI7951 = tested on: RPMI7951
# RVH-421 = tested on: RVH-421
# SkMel28 = tested on: SkMel28
# SkMel2 = tested on: SkMel2
# SkMel30 = tested on: SkMel30
# SkMel5 = tested on: SkMel5
# UACC257 = tested on: UACC257
# UACC62 = tested on: UACC62
Structure (SMILES),cleaved PARP positive nuclei fraction (COLO792) [%],cleaved PARP positive nuclei fraction (COLO800) [%],cleaved PARP positive nuclei fraction (COLO829) [%],cleaved PARP positive nuclei fraction (G361) [%],cleaved PARP positive nuclei fraction (IPC-298) [%],cleaved PARP positive nuclei fraction (IST-MEL1) [%],cleaved PARP positive nuclei fraction (LB2518-MEL) [%],cleaved PARP positive nuclei fraction (LOXIMVI) [%],cleaved PARP positive nuclei fraction (MEL-HO) [%],cleaved PARP positive nuclei fraction (MZ2-MEL) [%],cleaved PARP positive nuclei fraction (MeWo) [%],cleaved PARP positive nuclei fraction (RPMI7951) [%],cleaved PARP positive nuclei fraction (RVH-421) [%],cleaved PARP positive nuclei fraction (SkMel28) [%],cleaved PARP positive nuclei fraction (SkMel2) [%],cleaved PARP positive nuclei fraction (SkMel30) [%],cleaved PARP positive nuclei fraction (SkMel5) [%],cleaved PARP positive nuclei fraction (UACC257) [%],cleaved PARP positive nuclei fraction (UACC62) [%]
"OCCn1cc(-c2cnc3nnn(Cc4ccc5ncccc5c4)c3n2)cn1 + CN(NC(=O)CC(=O)NN(C)C(=S)c1ccccc1)C(=S)c1ccccc1 [STA4783] (first compound 1 µM, partner dose 0.006 µM)",114,143,165,117,44.7,116,60.2,107,64.1,81.7,32.2,157,73.4,62.2,64.3,65.1,133,84.4,164
"COCC[n+]1c2c(n(Cc3cnccn3)c1C)C(=O)c1ccccc1C2=O + NC(=O)Nc1cc(-c2cccc(F)c2)sc1C(=O)N[C@H]1CCCNC1 [AZD7762] (first compound 0.0004 µM, partner dose 0.02 µM)",84.7,27.7,102,111,47,66.3,116,105,70,142,133,159,131,55.5,141,78.6,125,71,46
"CC(=O)c1c(C)c2cnc(Nc3ccc(N4CCNCC4)cn3)nc2n(C2CCCC2)c1=O [palbociclib] + CC(C)(C)c1cnc(CSc2cnc(NC(=O)C3CCNCC3)s2)o1 [SNS-032] (first compound 0.04 µM, partner dose 0.01 µM)",161,25.1,179,53.3,89.9,111,131,69.4,37.7,98.5,233,144,54.6,320,58,72.8,65.6,143,226
"Cc1nc(Nc2ncc(C(=O)Nc3c(C)cccc3Cl)s2)cc(N2CCN(CCO)CC2)n1 [dasatanib] + OCCn1cc(-c2cnc3nnn(Cc4ccc5ncccc5c4)c3n2)cn1 [PF04217903] (first compound 0.004 µM, partner dose 1 µM)",150,80.1,103,49.9,106,60.9,32.9,269,116,161,39,110,109,112,64.7,59.8,139,150,39.9
"C=CCNC1=C2C[C@@H](C)C[C@H](OC)[C@H](O)[C@@H](C)/C=C(\C)[C@H](OC(N)=O)[C@@H](OC)/C=C\C=C(/C)C(=O)NC(=CC1=O)C2=O [Tanespimycin] + Cc1ccc(NC(=O)c2cccc(N(C)C)c2)cc1NC(=O)c1ccc(O)cc1 [ZM336372] (first compound 0.002 µM, partner dose 2 µM)",87.4,126,83.2,31.4,58.5,102,159,36,72.5,76,45,211,45,346,96.9,68.3,341,82.7,70.1
"Clc1ccc(Nc2nnc(Cc3ccncc3)c3ccccc23)cc1 [vatalanib] + C[C@@H]1CCN(C(=O)CC#N)C[C@@H]1N(C)c1ncnc2[nH]ccc12 [CP690550] (first compound 2 µM, partner dose 1 µM)",132,75.5,179,115,24.6,152,127,319,122,176,86.6,58.5,42,28.4,176,133,149,242,147
"CC(C)(C)c1cnc(CSc2cnc(NC(=O)C3CCNCC3)s2)o1 + NCC(=O)Nc1ccc(-n2nc(C(F)(F)F)cc2-c2ccc3c(ccc4ccccc43)c2)cc1 [OSU03012] (first compound 0.01 µM, partner dose 1 µM)",164,198,77.8,44.5,97.9,96.3,70.2,69.5,140,140,239,49.3,74.4,35.1,150,103,81.5,81.7,99.9
"Cn1cncc1[C@@](N)(c1ccc(Cl)cc1)c1ccc2c(c1)c(-c1cccc(Cl)c1)cc(=O)n2C [tipifarnib] + O=C(O)c1ccc(-c2c[nH]c3ncc(-c4ccccc4)cc23)cc1C1CCCC1 [GSK650394] (first compound 0.01 µM, partner dose 0.16 µM)",58.3,90.2,92.3,104,48.4,103,233,41.2,48,136,175,90.2,129,66.2,160,259,28,108,228
"C[C@@H]1CCN(C(=O)CC#N)C[C@@H]1N(C)c1ncnc2[nH]ccc12 + CN(NC(=O)CC(=O)NN(C)C(=S)c1ccccc1)C(=S)c1ccccc1 [STA4783] (first compound 1 µM, partner dose 0.006 µM)",308,238,144,158,91.2,209,294,94.3,84.7,156,36.8,103,32.4,31,55.9,201,499,46.3,59.4
